Values quoted from earlier work, collected in patent EP2727592A1 (Kücükgüzel, Sükriye Güniz, priority 2012, dated 2014).

Settings: in vivo

Compound: Clc1ccc2c(c1)CCc1cccnc1C2=C1CCNCC1 [Desloratadine, 8-Chloro-6,11-dihydro-11-(4-piperidinylidene)-5H-benzo[5,6]cyclohepta[1,2-b]pyridine]
- duration of effect: 24 h
